Experimental data from article PMC3763546, “Structural insight into negative DNA supercoiling by DNA gyrase, a bacterial type 2A DNA topoisomerase” (Nucleic Acids Research, 2013).
These are yes or no findings as the source states them, for the method shown. Some results given as binding are weak or reduced against the parent protein; the word gives no strength. Sequences can lack the tags named with a protein.

Molecular target: T1, Thermus thermophilus DNA gyrase subunit A (GyrA), as it stands in GyrBA-fus (Thermus thermophilus) (UniProt Q5SIL4)
T1 sequence: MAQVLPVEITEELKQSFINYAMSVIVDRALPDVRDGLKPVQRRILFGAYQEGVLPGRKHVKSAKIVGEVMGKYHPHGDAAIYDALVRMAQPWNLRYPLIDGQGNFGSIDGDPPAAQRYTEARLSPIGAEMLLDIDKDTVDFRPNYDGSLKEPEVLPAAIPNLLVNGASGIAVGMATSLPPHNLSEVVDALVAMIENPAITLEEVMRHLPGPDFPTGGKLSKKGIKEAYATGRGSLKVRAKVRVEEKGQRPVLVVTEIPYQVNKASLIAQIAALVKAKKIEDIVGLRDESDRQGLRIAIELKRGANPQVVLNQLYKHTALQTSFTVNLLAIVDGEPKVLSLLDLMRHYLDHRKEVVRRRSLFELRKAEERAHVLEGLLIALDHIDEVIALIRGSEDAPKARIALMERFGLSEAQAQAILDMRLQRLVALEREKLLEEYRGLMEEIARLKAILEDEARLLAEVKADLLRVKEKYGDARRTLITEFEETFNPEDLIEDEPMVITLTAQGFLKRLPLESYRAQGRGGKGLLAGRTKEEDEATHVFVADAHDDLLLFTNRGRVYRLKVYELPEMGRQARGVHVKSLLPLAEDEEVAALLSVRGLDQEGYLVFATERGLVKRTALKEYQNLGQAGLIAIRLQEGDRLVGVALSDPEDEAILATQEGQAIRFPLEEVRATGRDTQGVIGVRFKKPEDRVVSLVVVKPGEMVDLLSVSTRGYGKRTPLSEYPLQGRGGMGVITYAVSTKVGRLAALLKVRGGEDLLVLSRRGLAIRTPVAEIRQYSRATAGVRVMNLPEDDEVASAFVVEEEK
Experiment: cryo-EM structure; DNA-bound complex: GyrBA-fus with 155 bp DNA, ciprofloxacin and ADPNP; single-particle reconstruction, no symmetry applied, 23 A (FSC 0.5); crystal structures of homologous domains fitted; both purified

B1: Thermus thermophilus DNA gyrase subunit A (GyrA), as it stands in GyrBA-fus (enzyme, UniProt Q5SIL4 1-805)
chain: MAQVLPVEITEELKQSFINYAMSVIVDRALPDVRDGLKPVQRRILFGAYQEGVLPGRKHVKSAKIVGEVMGKYHPHGDAAIYDALVRMAQPWNLRYPLIDGQGNFGSIDGDPPAAQRYTEARLSPIGAEMLLDIDKDTVDFRPNYDGSLKEPEVLPAAIPNLLVNGASGIAVGMATSLPPHNLSEVVDALVAMIENPAITLEEVMRHLPGPDFPTGGKLSKKGIKEAYATGRGSLKVRAKVRVEEKGQRPVLVVTEIPYQVNKASLIAQIAALVKAKKIEDIVGLRDESDRQGLRIAIELKRGANPQVVLNQLYKHTALQTSFTVNLLAIVDGEPKVLSLLDLMRHYLDHRKEVVRRRSLFELRKAEERAHVLEGLLIALDHIDEVIALIRGSEDAPKARIALMERFGLSEAQAQAILDMRLQRLVALEREKLLEEYRGLMEEIARLKAILEDEARLLAEVKADLLRVKEKYGDARRTLITEFEETFNPEDLIEDEPMVITLTAQGFLKRLPLESYRAQGRGGKGLLAGRTKEEDEATHVFVADAHDDLLLFTNRGRVYRLKVYELPEMGRQARGVHVKSLLPLAEDEEVAALLSVRGLDQEGYLVFATERGLVKRTALKEYQNLGQAGLIAIRLQEGDRLVGVALSDPEDEAILATQEGQAIRFPLEEVRATGRDTQGVIGVRFKKPEDRVVSLVVVKPGEMVDLLSVSTRGYGKRTPLSEYPLQGRGGMGVITYAVSTKVGRLAALLKVRGGEDLLVLSRRGLAIRTPVAEIRQYSRATAGVRVMNLPEDDEVASAFVVEEEK
binding: binds
